In PMC11289521:
These are yes or no findings as the source states them, for the method shown. In cells and extracts the contact can be indirect. Some binding calls cover weakened binding; strength is not graded here. Tags and fused reporters may be left off the sequences shown.

Biological target: T1, β-1, 4-galactosyltransferase 1 (B4galt1), endogenous (mouse (endogenous in MEFs)) (UniProt P15535)
T1 sequence: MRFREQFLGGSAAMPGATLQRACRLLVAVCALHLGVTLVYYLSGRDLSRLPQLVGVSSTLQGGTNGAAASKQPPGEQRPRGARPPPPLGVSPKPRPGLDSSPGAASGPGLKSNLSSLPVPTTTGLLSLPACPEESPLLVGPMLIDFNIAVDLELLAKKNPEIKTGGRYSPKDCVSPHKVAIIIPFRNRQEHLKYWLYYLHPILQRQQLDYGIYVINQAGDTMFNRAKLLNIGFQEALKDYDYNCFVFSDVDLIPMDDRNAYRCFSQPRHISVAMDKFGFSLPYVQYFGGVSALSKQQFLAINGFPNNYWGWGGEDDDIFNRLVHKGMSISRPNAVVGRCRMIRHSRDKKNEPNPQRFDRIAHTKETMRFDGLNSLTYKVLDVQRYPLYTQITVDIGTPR
Assay: proximity ligation; Duolink In Situ PLA on fixed MEFs stably expressing St6gal1-GFP (Gphr-/-GPHR-3F and Gphr-/-Vec); goat anti-B4galt1 and mouse anti-GFP primary antibodies; signal when the epitopes are <40 nm apart; B4galt1 antibody alone as background; number and area of dots significantly decreased in Gphr-/-Vec MEFs

- binding: binds
B1: β-galactoside α-2,6-sialyltransferase 1-GFP (St6gal1-GFP) (enzyme, UniProt Q64685 1-403)
chain: MIHTNLKRKFSCFVLVFLLFAIICVWKKGSDYEALTLQAKVFQMPKSQEKVAVGPAPQAVFSNSKQDPKEGVQILSYPRVTAKVKPQPSLQVWDKDSTYSKLNPRLLKIWRNYLNMNKYKVSYKGPGPGVKFSVEALRCHLRDHVNVSMIEATDFPFNTTEWEGYLPKENFRTKAGPWHKCAVVSSAGSLKNSQLGREIDNHDAVLRFNGAPTDNFQQDVGTKTTIRLVNSQLVTTEKRFLKDSLYTEGILILWDPSVYHADIPQWYQKPDYNFFETYKSYRRLHPSQPFYILKPQMPWELWDIIQEISPDLIQPNPPSSGMLGIIIMMTLCDQVDIYEFLPSKRKTDVCYYHQKFFDSACTMGAYHPLLFEKNMVKHLNEGTDEDIYLFGKATLSGFRNNRC
